Measured values reported in paper PMC10163288.
Some of the results follow.

B1: il10ra_site1_normal_mot_e16fbc155443e7b5a8f44372f038f9e6_0001_1_000000271_0001_16_33_H_._HHH_b2_03173_0001_0000100001_0000001_0 (protein)
chain: SSSSDVEERLEELVEQLVEELGLSEEEEKALRLIARLLLLAGLDPRWVERSVEYIARQNAKSSSS
B2: il10ra_site1_sap_16_mot_HHH_b2_00262_000000269_0001_18_35_H_._0747388746a55ac07d1e89ee11861e50_0001_af2_0002_0001100025_0000002_0_0001 (protein)
chain: SSSSDQEEELLEAAIRLVEQALEWGDEELARMMIAAIEMLAREVGDEEAEEFVEKVKEKLSSSSS
B3: il10ra_site1_normal_mot_HHH_b1_00456_000000263_0001_1_17_H_._HHH_b1_02339_af2_0001_0000400034_0000002_0_af2pred_0001 (protein)
chain: SSSSSEEVKELLEELKKLVEEGDEEKFRELYIEIALLIAQLGDEELAHILTRLFAEFNRLHSSSS
B4: il10ra_site1_normal_mot_HHH_b1_03333_000000091_0001_1_17_H_._HHH_b1_02376_af2_0001_0001000012_0000001_0 (protein)
chain: SSSNEYELAREIIEEVAELLHKNDEERIEELLEELERLAHEKNNTAVESAINAIKIALEALSSSS
B5: il10ra_site1_sap_23_mot_HHH_b2_06795_000000133_0001_42_56_H_._HHH_b2_00160_af2_0001_0000900017_0000002_0_0001 (protein)
chain: SSSSSDDETERLYELSEEALRIDDPEEAEEVVQEAFELAEEAGNRVLLKNIRFLLEQLRSSSSSS
B6: il10ra_site1_normal_mot_HHH_b2_00273_000000062_0001_23_39_H_._HHH_b2_06821_0001_0000700082_0000001_0 (protein)
chain: SSSSEIEEYIEEVEERVRELVERGDTEEALQLLWEAAKLVAENNDEEALRILAELLRLVFRSSSS
B7: il10ra_site1_sap_24_mot_HHH_b2_07442_000000239_0001_40_54_H_._HHH_b2_00050_0001_0000800015_0000002_0_0001 (protein)
chain: SSSSTQEVLELAKRIFELLLRGNYEEAEELIEEALRLAEEEGSEQARFVLEHLLRTVRAELSSSS
B8: il10ra_site1_sap_18_mot_HHH_b1_05357_000000034_0001_23_39_H_._HHH_b2_08282_0001_0000300031_0000001_0_0001 (protein)
chain: SSSSDEEERLEELLRELEELIERNDDERFLEVALEVLRLAYRANDPEALRAVWELVRKAGSSSSS
B9: il10ra_site1_normal_mot_HHH_b1_02397_af2_000000085_0001_39_57_H_._HHH_b2_06748_af2_0001_0000600026_0000002_0 (protein)
chain: SSSSDREELAEEVERELEELAEEGDREEFARLAQEALRLAFRLSDPELLKRLWELVRKAASSSSS
B10: il10ra_site1_normal_mot_HHH_b1_02809_af2_000000277_0001_40_57_H_._HHH_b1_00088_0001_0000100004_0000001_0_af2pred_0001 (protein)
chain: SSSSDEAERSVRILLRAAERLIELGNPELAKLALRDAAIAAKDGNNEELLERVEKLLEELSSSSS
B11: il10ra_site1_sap_26_mot_HHH_b2_02757_000000230_0001_1_19_H_._HHH_b2_08066_0001_0000100007_0000001_1_0001_af2pred_0001 (protein)
chain: SSSSSSEEIVEKAAVRASEAKREGNPEEAERILEEAAEEVEKRGDRELVKLLEALLRLLKSSSSS
B12: il10ra_site1_normal_mot_ems_3hM_3349_000000016_0001_25_42_H_._f9c37336de6f1513c893807100b70f62_0001_af2_0001_0000400015_0000001_0 (protein)
chain: SVEELLEELLRQKLPPHEVKQILLALELQEKQAGDPKQALRALLAFLRLAGDPESAEVVEEVIRH
B13: il10ra_site1_sap_29_mot_HHH_b1_03613_af2_000000245_0001_1_20_H_._HHH_b2_04513_af2_0001_0000100001_0000002_1_0001_af2pred_0001 (protein)
chain: SSSSSSEERIRRTFRFAKFAIEQGDEEAAKLAIRFLEELAKQANDPEAEELVEELRELLSSSSSS
B14: il10ra_site1_normal_mot_HHH_b1_00999_000000080_0001_41_55_H_._HHH_b1_08189_0001_0000600028_0000001_1 (protein)
chain: SSSSSSREFIRLLQEAVRLAFRLSDEELLQALWRLAREWGEEGDEKYAEELQELIEEVGSSSSSS
B15: il10ra_site1_sap_19_mot_HHH_b1_06912_af2_000000235_0001_1_15_H_._HHH_b1_01587_0001_0000300023_0000001_0_0001_af2pred_0001 (protein)
chain: SSSSSAEERLEELLREIEEALEEGDHELVLKLLLEVSKFALKLGDHEITKRILELAKLLKSSSSS
B16: il10ra_site1_sap_18_mot_HHH_b2_00943_af2_000000149_0001_1_17_H_._HHH_b1_00930_af2_0001_0000200006_0000001_0_0001 (protein)
chain: SSSSSDVEEEVEELLERAEKIEDPDEWYRLLKEAIELASEANDPELFRLVMKVLHESLKGSSSSS
B17: il10ra_site1_normal_mot_HHH_b1_04015_af2_000000074_0001_1_17_H_._HHH_b1_02994_0001_0000400033_0000001_0 (protein)
chain: SSSSSDEYQEEVEELLERAEHIPDPEERYKLLKEAIQLAVEANDEELERLVIEVLRRLLHSSSSS
B18: il10ra_site1_sap_22_mot_1c3c3e46dde0d4e4be3ec3dd9add6289_0001_000000096_0001_34_50_H_._HHH_b1_00258_af2_0001_0000400016_0000001_0_0001 (protein)
chain: SSSSDEAYRLVKEAIEEALELWRNGNPEEARQLIEEVIEELRELGNWAAVWAAEHVLRVLRSSSS
B19: il10ra_site1_normal_mot_HHH_b2_00622_af2_000000153_0001_40_57_H_._HHH_b2_08153_af2_0001_0000100006_0000001_0_af2pred_dldesign_0_af2pred (protein)
chain: SSSSSEARALVRRSLAAARELLERGLPEEARKLVEYALELAKQAGDEELLAEAEALLAELESSSS
B20: il10ra_site1_sap_12_mot_HHH_b2_00984_000000042_0001_1_20_H_._HHH_b1_02095_af2_0001_0000200010_0000001_0_0001 (protein)
chain: SSSSSESDEIYELLQEALELRANGDPEEAREVLEEAERLAEEANNRLFRMQIRFVLKELESSSSS
B21: il10ra_site1_sap_21_mot_HHH_b1_04638_000000131_0001_21_38_H_._HHH_b1_01673_0001_0000100003_0000001_0_0001_af2pred_dldesign_0_af2pred (protein)
chain: SSSSSAEELTRQALRAARLALEAGDLEAARRALETARALAEKAGNAELLEEIAALERELESSSSS
B22: il10ra_site1_normal_mot_HHH_b1_07743_af2_000000164_0001_42_55_H_._HHH_b2_03069_af2_0001_0000200004_0000001_0 (protein)
chain: SSSSDLEEIVRRVAEALVEAARIDDEREVEELLEEAKQLAEEANNDILRAQIEFVEKLLNSSSSS
B23: il10ra_site1_sap_13_mot_HHH_b2_06864_af2_000000190_0001_1_20_H_._HHH_b2_05372_0001_0000100002_0000001_0_0001 (protein)
chain: SSSSSAEFLIRQALRAVELALKAGDPEEARRALKIAELLAEQAGDPEVREEVEEMEEQINSSSSS
B24: il10ra_site1_sap_16_mot_HHH_b2_00092_000000181_0001_22_39_H_._HHH_b2_04089_0001_0000300023_0000001_0_0001_af2pred_0001 (protein)
chain: SSSSSSERVKLSIRFAELLLEDGDPEAARFIIEAAQELAERDGDEELLEEAEELLREIESSSSSS

Molecular target: il10ra, Q13651
Experiment: yeast display titration

| Binder | apparent Kd |
| --- | --- |
| B1 | inactive: no binding seen |
| B2 | inactive: no binding seen |
| B3 | inactive: no binding seen |
| B4 | inactive: no binding seen |
| B5 | inactive: no binding seen |
| B6 | inactive: no binding seen |
| B7 | inactive: no binding seen |
| B8 | inactive: no binding seen |
| B9 | inactive: no binding seen |
| B10 | inactive: no binding seen |
| B11 | inactive: no binding seen |
| B12 | inactive: no binding seen |
| B13 | inactive: no binding seen |
| B14 | inactive: no binding seen |
| B15 | inactive: no binding seen |
| B16 | inactive: no binding seen |
| B17 | inactive: no binding seen |
| B18 | inactive: no binding seen |
| B19 | inactive: no binding seen |
| B20 | inactive: no binding seen |
| B21 | inactive: no binding seen |
| B22 | inactive: no binding seen |
| B23 | inactive: no binding seen |
| B24 | inactive: no binding seen |

Some of the entries so far, with bars between the fields:
Binder | apparent Kd
B19 | inactive: no binding seen
B20 | inactive: no binding seen
